# In the supplement of paper PMC10032668:
# The chains behind the UniProt entries cited, without tags or fusion partners.
# CAMK2D, Q13557, UniProt Q13557, whole entry: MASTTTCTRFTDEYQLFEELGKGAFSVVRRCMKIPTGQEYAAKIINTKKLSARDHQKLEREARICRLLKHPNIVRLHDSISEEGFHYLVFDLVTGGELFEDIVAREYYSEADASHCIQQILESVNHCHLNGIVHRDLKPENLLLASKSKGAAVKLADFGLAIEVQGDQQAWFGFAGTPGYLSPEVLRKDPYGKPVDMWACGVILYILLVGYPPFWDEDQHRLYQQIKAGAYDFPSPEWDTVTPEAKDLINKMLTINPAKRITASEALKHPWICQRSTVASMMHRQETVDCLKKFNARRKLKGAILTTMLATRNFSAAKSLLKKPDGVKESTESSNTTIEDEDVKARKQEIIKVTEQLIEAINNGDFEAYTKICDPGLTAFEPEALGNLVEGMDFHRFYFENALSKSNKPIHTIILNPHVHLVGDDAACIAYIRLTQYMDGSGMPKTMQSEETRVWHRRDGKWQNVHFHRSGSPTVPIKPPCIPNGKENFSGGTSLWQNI
# SRPK1, Q96SB4, UniProt Q96SB4, whole entry: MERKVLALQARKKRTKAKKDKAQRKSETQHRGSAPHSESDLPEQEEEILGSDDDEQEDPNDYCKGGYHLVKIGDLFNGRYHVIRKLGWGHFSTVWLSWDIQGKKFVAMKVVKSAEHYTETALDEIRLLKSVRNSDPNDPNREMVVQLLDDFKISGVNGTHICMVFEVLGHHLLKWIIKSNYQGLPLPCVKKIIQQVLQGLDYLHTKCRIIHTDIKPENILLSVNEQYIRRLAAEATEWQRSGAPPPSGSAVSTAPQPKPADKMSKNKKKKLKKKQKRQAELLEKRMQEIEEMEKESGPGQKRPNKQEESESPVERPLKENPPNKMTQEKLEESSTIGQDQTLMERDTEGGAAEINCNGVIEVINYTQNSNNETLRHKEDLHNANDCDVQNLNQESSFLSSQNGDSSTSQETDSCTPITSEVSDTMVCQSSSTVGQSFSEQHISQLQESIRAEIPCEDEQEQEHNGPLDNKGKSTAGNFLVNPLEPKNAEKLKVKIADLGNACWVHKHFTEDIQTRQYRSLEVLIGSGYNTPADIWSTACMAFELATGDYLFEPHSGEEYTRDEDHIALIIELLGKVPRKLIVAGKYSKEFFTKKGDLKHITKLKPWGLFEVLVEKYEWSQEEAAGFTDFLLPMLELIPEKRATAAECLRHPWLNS
# CHMP2B, Q9UQN3, UniProt Q9UQN3, whole entry: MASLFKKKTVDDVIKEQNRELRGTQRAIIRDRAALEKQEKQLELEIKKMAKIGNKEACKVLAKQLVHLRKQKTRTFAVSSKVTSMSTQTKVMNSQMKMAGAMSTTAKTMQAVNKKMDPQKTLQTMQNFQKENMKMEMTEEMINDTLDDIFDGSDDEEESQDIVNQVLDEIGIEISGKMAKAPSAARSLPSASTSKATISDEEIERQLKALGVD
# HIST1H1D, P16402, UniProt P16402, whole entry: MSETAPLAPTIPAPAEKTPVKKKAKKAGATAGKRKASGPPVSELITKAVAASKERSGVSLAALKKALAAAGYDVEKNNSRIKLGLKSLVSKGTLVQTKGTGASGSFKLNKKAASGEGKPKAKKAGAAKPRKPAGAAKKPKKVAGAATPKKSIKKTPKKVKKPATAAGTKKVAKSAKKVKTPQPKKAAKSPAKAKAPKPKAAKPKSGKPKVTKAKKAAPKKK
# KHDRBS1, Q07666, UniProt Q07666, whole entry: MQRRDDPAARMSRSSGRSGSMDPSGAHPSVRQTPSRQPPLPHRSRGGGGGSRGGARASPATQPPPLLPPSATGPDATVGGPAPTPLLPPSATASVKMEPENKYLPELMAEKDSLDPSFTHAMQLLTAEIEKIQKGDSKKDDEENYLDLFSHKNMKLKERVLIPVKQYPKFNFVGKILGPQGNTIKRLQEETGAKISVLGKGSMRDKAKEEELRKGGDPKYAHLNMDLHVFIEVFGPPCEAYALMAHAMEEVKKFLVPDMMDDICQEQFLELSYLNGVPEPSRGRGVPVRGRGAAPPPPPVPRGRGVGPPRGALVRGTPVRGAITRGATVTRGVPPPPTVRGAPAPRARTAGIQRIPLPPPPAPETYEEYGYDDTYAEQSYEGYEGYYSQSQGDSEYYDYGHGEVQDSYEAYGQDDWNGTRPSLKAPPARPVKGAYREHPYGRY
# TOMM20, Q15388, UniProt Q15388, whole entry: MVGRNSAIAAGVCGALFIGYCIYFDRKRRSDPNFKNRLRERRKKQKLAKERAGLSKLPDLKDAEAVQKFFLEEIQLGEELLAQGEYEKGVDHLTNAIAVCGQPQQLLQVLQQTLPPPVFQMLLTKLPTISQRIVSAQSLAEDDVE
# EIF1, P41567, UniProt P41567, whole entry: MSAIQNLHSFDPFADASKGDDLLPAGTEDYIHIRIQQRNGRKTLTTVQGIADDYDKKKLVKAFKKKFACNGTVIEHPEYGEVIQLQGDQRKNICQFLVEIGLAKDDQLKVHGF
# TMEM97, Q5BJF2, UniProt Q5BJF2, whole entry: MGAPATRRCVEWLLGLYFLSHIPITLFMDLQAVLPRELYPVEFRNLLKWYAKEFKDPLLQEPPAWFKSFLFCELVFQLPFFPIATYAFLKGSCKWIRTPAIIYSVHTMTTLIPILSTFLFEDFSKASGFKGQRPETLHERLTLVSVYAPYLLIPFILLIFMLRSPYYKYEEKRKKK
# This is one part of the list. The list holds hits alone, and they repeat only in part.
# Assays:
# Experiment in all cases: PRISMA enrichment of interactor (LFQ) in peptide spot vs all other peptide spots (log2 fold change); higher = stronger / more specific binding of the interactor to the peptide
# ALYREF, Q86V81 = target: ALYREF, Q86V81
# Experimental: (§1)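 PRISMA: 15-aa overlapping tiles (offset 8 aa) of 60 microproteins, plus SOS1/GLUT1 control peptides, were spot-synthesized on cellulose membranes in triplicate. Membranes were incubated with benzonase-treated HEK293T lysate, and bound proteins were identified by LC-MS/MS with LFQ. Enrichment is the log2 fold change of each protein in one spot versus all other spots. Only interactors passing the significance cutoff are listed.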
# C19orf53, Q9UNZ5 = target: C19orf53, Q9UNZ5
# Experimental: as §1
# CALU, O43852 = target: CALU, O43852
# Experimental: as §1
# CAMK2D, Q13557 = target: CAMK2D, Q13557
# Experimental: as §1
# CAMK2G, Q13555 = target: CAMK2G, Q13555
# Experimental: as §1
# CHTOP, Q9Y3Y2 = target: CHTOP, Q9Y3Y2
# Experimental: as §1
# CSRP2, Q16527 = target: CSRP2, Q16527
# Experimental: as §1
# EMG1, Q92979 = target: EMG1, Q92979
# Experimental: as §1
# FAM98B, Q52LJ0 = target: FAM98B, Q52LJ0
# Experimental: as §1
# GABARAPL2, P60520 = target: GABARAPL2, P60520
# Experimental: as §1
# MRPL46, Q9H2W6 = target: MRPL46, Q9H2W6
# Experimental: as §1
# PCLAF, Q15004 = target: PCLAF, Q15004
# Experimental: as §1
# [1] = substrate: PPIF, P30405
# Experimental: as §1
# PRKCSH, P14314 = target: PRKCSH, P14314
# Experimental: as §1
# SRPK1, Q96SB4 = target: SRPK1, Q96SB4
# Experimental: as §1
# ZNF22, P17026 = target: ZNF22, P17026
# Experimental: as §1
# ALKBH5, Q6P6C2 = target: ALKBH5, Q6P6C2
# Experimental: as §1
# C11orf98, E9PRG8 = target: C11orf98, E9PRG8
# Experimental: as §1
# CHMP2B, Q9UQN3 = target: CHMP2B, Q9UQN3
# Experimental: as §1
# CLIP2, Q9UDT6 = target: CLIP2, Q9UDT6
# Experimental: as §1
# DNAJC19, Q96DA6 = target: DNAJC19, Q96DA6
# Experimental: as §1
# ECHS1, P30084 = target: ECHS1, P30084
# Experimental: as §1
# EDF1, O60869 = target: EDF1, O60869
# Experimental: as §1
# FAM207A, Q9NSI2 = target: FAM207A, Q9NSI2
# Experimental: as §1
# HIST1H1D, P16402 = target: HIST1H1D, P16402
# Experimental: as §1
# HMGB1, P09429 = target: HMGB1, P09429
# Experimental: as §1
# HMGB3, O15347 = target: HMGB3, O15347
# Experimental: as §1
# KHDRBS1, Q07666 = target: KHDRBS1, Q07666
# Experimental: as §1
# POLDIP3, Q9BY77 = target: POLDIP3, Q9BY77
# Experimental: as §1
# PRRC2A, P48634 = target: PRRC2A, P48634
# Experimental: as §1
# RBM42, Q9BTD8 = target: RBM42, Q9BTD8
# Experimental: as §1
# RPS19BP1, Q86WX3 = target: RPS19BP1, Q86WX3
# Experimental: as §1
# RRP1B, Q14684 = target: RRP1B, Q14684
# Experimental: as §1
# SDAD1, Q9NVU7 = target: SDAD1, Q9NVU7
# Experimental: as §1
# TFAM, Q00059 = target: TFAM, Q00059
# Experimental: as §1
# TOMM20, Q15388 = target: TOMM20, Q15388
# Experimental: as §1
# ZNF706, Q9Y5V0 = target: ZNF706, Q9Y5V0
# Experimental: as §1
# hCG_2014768 = target: hCG_2014768
# Experimental: as §1
# EIF1, P41567 = target: EIF1, P41567
# Experimental: as §1
# TMEM97, Q5BJF2 = target: TMEM97, Q5BJF2
# Experimental: as §1
# VPS4A, Q9UN37 = target: VPS4A, Q9UN37
# Experimental: as §1
binder,measurement,setting,value
TLRRTALSWWESVDI [THAP7],PRISMA enrichment of interactor (log2),"ALYREF, Q86V81",5.7
same,PRISMA enrichment of interactor (log2),"C19orf53, Q9UNZ5",6.92
same,PRISMA enrichment of interactor (log2),"CALU, O43852",6.57
same,PRISMA enrichment of interactor (log2),"CAMK2D, Q13557",4.32
same,PRISMA enrichment of interactor (log2),"CAMK2G, Q13555",4.62
same,PRISMA enrichment of interactor (log2),"CHTOP, Q9Y3Y2",5.2
same,PRISMA enrichment of interactor (log2),"CSRP2, Q16527",5.01
same,PRISMA enrichment of interactor (log2),"EMG1, Q92979",4.79
same,PRISMA enrichment of interactor (log2),"FAM98B, Q52LJ0",6.28
same,PRISMA enrichment of interactor (log2),"GABARAPL2, P60520",5.22
same,PRISMA enrichment of interactor (log2),"MRPL46, Q9H2W6",4.92
same,PRISMA enrichment of interactor (log2),"PCLAF, Q15004",4.14
same,PRISMA enrichment of interactor (log2),[1],4.94
same,PRISMA enrichment of interactor (log2),"PRKCSH, P14314",4.53
same,PRISMA enrichment of interactor (log2),"SRPK1, Q96SB4",6
same,PRISMA enrichment of interactor (log2),"ZNF22, P17026",4.32
QFIMELLYWLLEGGD,PRISMA enrichment of interactor (log2),"ALKBH5, Q6P6C2",3.98
same,PRISMA enrichment of interactor (log2),"C11orf98, E9PRG8",4.64
same,PRISMA enrichment of interactor (log2),"C19orf53, Q9UNZ5",5.09
same,PRISMA enrichment of interactor (log2),"CHMP2B, Q9UQN3",4.04
same,PRISMA enrichment of interactor (log2),"CHTOP, Q9Y3Y2",3.74
same,PRISMA enrichment of interactor (log2),"CLIP2, Q9UDT6",4.29
same,PRISMA enrichment of interactor (log2),"DNAJC19, Q96DA6",3.69
same,PRISMA enrichment of interactor (log2),"ECHS1, P30084",4.16
same,PRISMA enrichment of interactor (log2),"EDF1, O60869",4.07
same,PRISMA enrichment of interactor (log2),"FAM207A, Q9NSI2",4.08
same,PRISMA enrichment of interactor (log2),"HIST1H1D, P16402",3.78
same,PRISMA enrichment of interactor (log2),"HMGB1, P09429",6.03
same,PRISMA enrichment of interactor (log2),"HMGB3, O15347",5.45
same,PRISMA enrichment of interactor (log2),"KHDRBS1, Q07666",5.6
same,PRISMA enrichment of interactor (log2),"POLDIP3, Q9BY77",4.48
same,PRISMA enrichment of interactor (log2),"PRRC2A, P48634",3.65
same,PRISMA enrichment of interactor (log2),"RBM42, Q9BTD8",3.6
same,PRISMA enrichment of interactor (log2),"RPS19BP1, Q86WX3",4.65
same,PRISMA enrichment of interactor (log2),"RRP1B, Q14684",4.23
same,PRISMA enrichment of interactor (log2),"SDAD1, Q9NVU7",4.51
same,PRISMA enrichment of interactor (log2),"TFAM, Q00059",4.3
same,PRISMA enrichment of interactor (log2),"TOMM20, Q15388",3.91
same,PRISMA enrichment of interactor (log2),"ZNF706, Q9Y5V0",3.47
same,PRISMA enrichment of interactor (log2),hCG_2014768,5.63
LEWFKYVLGIPVYRL,PRISMA enrichment of interactor (log2),"ALKBH5, Q6P6C2",6.36
same,PRISMA enrichment of interactor (log2),"EIF1, P41567",6.2
same,PRISMA enrichment of interactor (log2),"TMEM97, Q5BJF2",4.07
same,PRISMA enrichment of interactor (log2),"VPS4A, Q9UN37",4.52

# 3 entries picked at random from the list so far, as already listed:
binder,measurement,setting,value
LEWFKYVLGIPVYRL,PRISMA enrichment of interactor (log2),"TMEM97, Q5BJF2",4.07
QFIMELLYWLLEGGD,PRISMA enrichment of interactor (log2),"RRP1B, Q14684",4.23
same,PRISMA enrichment of interactor (log2),"KHDRBS1, Q07666",5.6
